PubChem BioAssay AID1259254, NCATS – 2017

Assay: 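Genome-wide screen for genes that prevent DNA re-replication in cancer cells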 (primary screen)
System: human HCT116 colorectal cancer cells
Knock-down reagent: single siRNA against human genes
Timing: 3 days
Measured: 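Imaged Hoechst DNA stain sorts each cell into a cycle phase by DNA amount; per plate, G2 fraction set to 0% for non-targeting and 100% for GMNN siRNA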
Direction: G2 robust z-score: higher = more G2 cells, more excess DNA replication
Rule for the call: 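An siRNA counts as active if its G2 robust z-score lies at least 5 MADs above the screen median; here such calls match roughly 38% of GMNN control or more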
The whole screen tested about 59,000 reagents; this is an unselected part. About 1,550 of them (2.6%) count as active. 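G2 share is only a proxy for re-replication; each gene was hit by three separate siRNAs, and active genes were retested.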 Not all columns of the deposit are shown. No sequences are given here. Not stated in the record: the amount of reagent.

TBPL2 [SID160765584] → G2 robust z-score: 4.36; Outcome: inactive
TBPL2 [SID160765585] → G2 robust z-score: 0.368; Outcome: inactive
TBPL2 [SID160765586] → G2 robust z-score: -0.48; Outcome: inactive
OVCH2 [SID160764529] → G2 robust z-score: -0.19; Outcome: inactive
OVCH2 [SID160764530] → G2 robust z-score: 7.69; Outcome: active
OVCH2 [SID160764531] → G2 robust z-score: 0.267; Outcome: inactive
ENO3 [SID160730760] → G2 robust z-score: 3.18; Outcome: inactive
ENO3 [SID160760459] → G2 robust z-score: -0.592; Outcome: inactive
ENO3 [SID160760480] → G2 robust z-score: 5.07; Outcome: active
ATAD2B [SID160741697] → G2 robust z-score: -0.905; Outcome: inactive
ATAD2B [SID160741698] → G2 robust z-score: -1.18; Outcome: inactive
ATAD2B [SID160741700] → G2 robust z-score: -0.66; Outcome: inactive
MSMP [SID160726440] → G2 robust z-score: -0.162; Outcome: inactive
MSMP [SID160771134] → G2 robust z-score: -0.705; Outcome: inactive
MSMP [SID160771135] → G2 robust z-score: -1.03; Outcome: inactive
VRK3 [SID160740368] → G2 robust z-score: -1.04; Outcome: inactive
VRK3 [SID160740369] → G2 robust z-score: 0.406; Outcome: inactive
VRK3 [SID160740370] → G2 robust z-score: -0.385; Outcome: inactive
GRIP1 [SID160736263] → G2 robust z-score: 0.684; Outcome: inactive
GRIP1 [SID160736264] → G2 robust z-score: 1.65; Outcome: inactive
GRIP1 [SID160736265] → G2 robust z-score: 7.79; Outcome: active
SLC67A1-AS [SID160778442] → G2 robust z-score: 1.64; Outcome: inactive
SLC67A1-AS [SID160778443] → G2 robust z-score: -0.174; Outcome: inactive
SLC67A1-AS [SID160778444] → G2 robust z-score: -0.456; Outcome: inactive
BTBD7 [SID160744193] → G2 robust z-score: 0.161; Outcome: inactive
BTBD7 [SID160744194] → G2 robust z-score: 3.15; Outcome: inactive
BTBD7 [SID160744195] → G2 robust z-score: -0.463; Outcome: inactive
ZNF112 [SID160719313] → G2 robust z-score: -0.893; Outcome: inactive
ZNF112 [SID160719314] → G2 robust z-score: -0.0457; Outcome: inactive
ZNF112 [SID160719315] → G2 robust z-score: -1.07; Outcome: inactive

Entries listed above marked active, once more:
OVCH2 [SID160764530] → G2 robust z-score: 7.69; Outcome: active
ENO3 [SID160760480] → G2 robust z-score: 5.07; Outcome: active
GRIP1 [SID160736265] → G2 robust z-score: 7.79; Outcome: active
